# Laboratory results published in article doi:10.1101/2022.11.06.515368.
# Chains of the proteins cited; added tags and fusions are not shown.
# UniProt O95071: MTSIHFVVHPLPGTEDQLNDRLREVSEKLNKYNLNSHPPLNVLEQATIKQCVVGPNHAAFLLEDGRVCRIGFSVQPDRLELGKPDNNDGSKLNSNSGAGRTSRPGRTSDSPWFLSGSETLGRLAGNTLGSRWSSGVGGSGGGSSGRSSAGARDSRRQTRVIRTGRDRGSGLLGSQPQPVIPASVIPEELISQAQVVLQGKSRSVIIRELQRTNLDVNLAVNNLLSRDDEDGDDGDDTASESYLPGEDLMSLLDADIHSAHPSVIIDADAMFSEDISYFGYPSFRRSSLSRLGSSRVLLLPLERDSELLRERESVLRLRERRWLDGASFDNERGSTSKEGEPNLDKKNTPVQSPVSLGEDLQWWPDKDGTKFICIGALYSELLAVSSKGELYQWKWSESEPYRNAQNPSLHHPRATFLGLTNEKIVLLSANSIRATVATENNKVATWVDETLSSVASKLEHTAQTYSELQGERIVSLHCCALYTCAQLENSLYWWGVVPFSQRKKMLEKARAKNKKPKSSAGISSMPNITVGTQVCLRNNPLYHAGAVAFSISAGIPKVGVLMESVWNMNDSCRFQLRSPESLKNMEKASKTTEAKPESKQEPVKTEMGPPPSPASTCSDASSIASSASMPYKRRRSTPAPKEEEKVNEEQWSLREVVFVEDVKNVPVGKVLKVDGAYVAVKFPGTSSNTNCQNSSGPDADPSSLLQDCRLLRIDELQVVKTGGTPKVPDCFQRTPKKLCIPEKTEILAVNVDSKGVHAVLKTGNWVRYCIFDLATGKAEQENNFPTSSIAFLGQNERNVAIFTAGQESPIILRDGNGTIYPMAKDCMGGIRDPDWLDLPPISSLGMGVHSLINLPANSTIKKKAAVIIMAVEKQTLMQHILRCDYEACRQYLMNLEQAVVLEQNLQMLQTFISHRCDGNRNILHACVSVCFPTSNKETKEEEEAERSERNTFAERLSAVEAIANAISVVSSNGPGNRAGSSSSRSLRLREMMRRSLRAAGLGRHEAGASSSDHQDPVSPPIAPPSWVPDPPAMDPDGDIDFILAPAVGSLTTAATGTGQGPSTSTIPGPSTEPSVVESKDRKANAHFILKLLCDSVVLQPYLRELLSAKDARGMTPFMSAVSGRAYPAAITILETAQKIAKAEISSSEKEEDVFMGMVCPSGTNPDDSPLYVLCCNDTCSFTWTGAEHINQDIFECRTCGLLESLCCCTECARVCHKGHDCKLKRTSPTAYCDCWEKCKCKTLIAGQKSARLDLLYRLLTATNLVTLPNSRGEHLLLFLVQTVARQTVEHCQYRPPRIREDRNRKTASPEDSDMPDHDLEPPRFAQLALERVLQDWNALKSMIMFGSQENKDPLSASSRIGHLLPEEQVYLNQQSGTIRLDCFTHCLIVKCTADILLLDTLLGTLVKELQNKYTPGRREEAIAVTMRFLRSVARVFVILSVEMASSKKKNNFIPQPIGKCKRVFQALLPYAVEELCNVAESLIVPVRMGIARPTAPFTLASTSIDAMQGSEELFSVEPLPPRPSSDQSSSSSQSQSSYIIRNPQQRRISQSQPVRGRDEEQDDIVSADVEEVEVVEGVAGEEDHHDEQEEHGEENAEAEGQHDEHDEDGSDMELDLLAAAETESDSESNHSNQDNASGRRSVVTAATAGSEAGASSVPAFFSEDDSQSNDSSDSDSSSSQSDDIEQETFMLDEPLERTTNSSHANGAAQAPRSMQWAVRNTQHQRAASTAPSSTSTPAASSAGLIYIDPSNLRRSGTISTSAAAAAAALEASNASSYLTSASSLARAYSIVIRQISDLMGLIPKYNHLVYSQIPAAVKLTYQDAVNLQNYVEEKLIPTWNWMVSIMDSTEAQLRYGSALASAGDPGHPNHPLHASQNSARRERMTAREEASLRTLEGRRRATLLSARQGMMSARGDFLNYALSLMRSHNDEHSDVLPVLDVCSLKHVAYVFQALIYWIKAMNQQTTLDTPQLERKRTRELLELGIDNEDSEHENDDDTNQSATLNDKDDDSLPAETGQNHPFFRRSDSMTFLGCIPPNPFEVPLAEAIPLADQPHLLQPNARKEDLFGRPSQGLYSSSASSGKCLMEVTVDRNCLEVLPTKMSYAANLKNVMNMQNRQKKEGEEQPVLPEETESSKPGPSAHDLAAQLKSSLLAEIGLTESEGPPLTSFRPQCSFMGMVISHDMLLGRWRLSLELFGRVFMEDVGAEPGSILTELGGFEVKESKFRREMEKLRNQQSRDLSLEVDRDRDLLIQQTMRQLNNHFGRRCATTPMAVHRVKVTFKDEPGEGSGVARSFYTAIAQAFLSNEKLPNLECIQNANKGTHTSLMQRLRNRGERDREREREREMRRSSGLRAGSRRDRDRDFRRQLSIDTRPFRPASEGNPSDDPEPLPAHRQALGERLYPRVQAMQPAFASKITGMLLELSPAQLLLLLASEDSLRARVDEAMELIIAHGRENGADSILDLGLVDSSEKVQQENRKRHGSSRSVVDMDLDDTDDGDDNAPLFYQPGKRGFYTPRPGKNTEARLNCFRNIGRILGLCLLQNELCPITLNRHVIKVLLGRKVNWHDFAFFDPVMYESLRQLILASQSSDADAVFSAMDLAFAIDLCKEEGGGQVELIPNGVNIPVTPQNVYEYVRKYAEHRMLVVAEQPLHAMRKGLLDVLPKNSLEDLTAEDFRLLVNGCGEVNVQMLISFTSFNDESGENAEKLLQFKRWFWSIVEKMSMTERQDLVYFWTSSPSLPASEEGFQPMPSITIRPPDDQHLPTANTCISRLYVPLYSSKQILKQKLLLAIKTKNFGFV
# UniProt Q96EZ8: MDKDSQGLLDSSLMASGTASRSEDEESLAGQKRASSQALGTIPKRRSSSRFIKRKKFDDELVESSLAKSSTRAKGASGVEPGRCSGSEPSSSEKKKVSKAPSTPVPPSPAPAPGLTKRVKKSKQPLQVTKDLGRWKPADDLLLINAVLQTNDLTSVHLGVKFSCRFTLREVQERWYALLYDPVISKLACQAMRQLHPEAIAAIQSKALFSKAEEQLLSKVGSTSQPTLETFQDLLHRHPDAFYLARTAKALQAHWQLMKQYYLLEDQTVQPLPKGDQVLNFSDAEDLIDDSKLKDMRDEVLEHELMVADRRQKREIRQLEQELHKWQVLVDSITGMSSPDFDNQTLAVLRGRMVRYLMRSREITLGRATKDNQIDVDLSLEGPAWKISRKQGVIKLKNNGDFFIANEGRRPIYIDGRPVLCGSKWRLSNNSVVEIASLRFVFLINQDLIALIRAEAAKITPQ
# UniProt O00139: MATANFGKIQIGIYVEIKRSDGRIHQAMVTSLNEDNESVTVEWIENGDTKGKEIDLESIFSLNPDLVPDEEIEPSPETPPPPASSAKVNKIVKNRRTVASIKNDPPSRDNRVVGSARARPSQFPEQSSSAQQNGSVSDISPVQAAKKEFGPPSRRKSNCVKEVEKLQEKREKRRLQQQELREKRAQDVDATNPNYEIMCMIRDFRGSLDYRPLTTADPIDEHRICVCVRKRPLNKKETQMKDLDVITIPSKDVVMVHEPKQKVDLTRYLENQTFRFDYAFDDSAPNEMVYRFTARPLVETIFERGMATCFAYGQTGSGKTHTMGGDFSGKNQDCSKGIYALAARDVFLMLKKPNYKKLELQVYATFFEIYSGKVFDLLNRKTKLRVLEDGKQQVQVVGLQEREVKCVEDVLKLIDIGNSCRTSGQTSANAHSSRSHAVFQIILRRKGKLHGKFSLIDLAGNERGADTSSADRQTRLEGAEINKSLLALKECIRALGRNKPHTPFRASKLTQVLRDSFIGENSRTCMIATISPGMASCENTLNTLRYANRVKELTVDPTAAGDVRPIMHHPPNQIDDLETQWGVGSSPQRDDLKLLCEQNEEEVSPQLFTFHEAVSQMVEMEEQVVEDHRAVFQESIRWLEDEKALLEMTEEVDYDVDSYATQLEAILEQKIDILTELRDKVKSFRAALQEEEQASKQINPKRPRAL
# UniProt P01106: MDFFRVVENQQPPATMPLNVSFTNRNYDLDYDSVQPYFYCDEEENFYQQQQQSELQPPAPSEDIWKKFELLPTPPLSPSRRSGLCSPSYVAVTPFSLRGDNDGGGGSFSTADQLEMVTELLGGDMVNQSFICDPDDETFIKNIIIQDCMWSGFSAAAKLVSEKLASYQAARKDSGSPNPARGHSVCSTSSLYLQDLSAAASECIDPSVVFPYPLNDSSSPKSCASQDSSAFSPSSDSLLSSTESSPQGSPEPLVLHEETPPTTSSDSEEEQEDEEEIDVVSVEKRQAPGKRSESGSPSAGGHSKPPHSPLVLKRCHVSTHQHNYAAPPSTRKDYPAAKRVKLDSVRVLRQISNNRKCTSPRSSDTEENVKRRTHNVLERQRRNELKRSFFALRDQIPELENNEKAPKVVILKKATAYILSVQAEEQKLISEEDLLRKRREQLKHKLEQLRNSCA
# Results are given in words; binding and its absence hold for the method and conditions named. In cells and extracts the contact can be indirect. Some binding calls cover weakened binding; strength is not graded here. For some of these results: Sequences can lack the tags named with a protein.
# How the values were obtained:
# Assay in all cases: co-IP
# [1] = molecular target: endogenously FLAG-tagged UBR5 (human) (UniProt O95071)
# [2] = molecular target: endogenous UBR5 in hESCs (human (endogenous in hESCs)) (UniProt O95071)
# [3] = molecular target: T1, FLAG-tagged CCDC85B (UniProt Q15834)
# T1 sequence: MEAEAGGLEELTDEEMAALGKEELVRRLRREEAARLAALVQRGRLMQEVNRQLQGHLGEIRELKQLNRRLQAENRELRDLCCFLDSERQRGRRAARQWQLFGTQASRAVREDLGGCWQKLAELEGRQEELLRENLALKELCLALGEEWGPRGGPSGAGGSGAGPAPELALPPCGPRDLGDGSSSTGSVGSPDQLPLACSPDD
# [4] = molecular target: FLAG-tagged MCRS1 (UniProt Q96EZ8)
substance,measurement,setting,value
KIF2A (from UniProt O00139 1-706),binding,[1],binds
same,binding,[2],binds
MCRS1 (from UniProt Q96EZ8 1-462),binding,[3],binds
endogenous c-MYC (from UniProt P01106 1-454),binding,[4],binds
